Measured data: PubChem BioAssay AID1224826 (NIAID, 2016)

Assay: 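Genes that change LPS-induced Tnf promoter activity in mouse macrophages when knocked down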 (primary screen)
System: RAW264.7 G9 macrophages from mouse bearing reporters for p65 (GFP) and the Tnf promoter (mCherry)
Reagents: siRNA pool against mouse genes, 100 nM
Time to read-out: 16 h of LPS stimulation, after 2 days of siRNA transfection
Conditions: bacterial lipopolysaccharide (Salmonella minnesota R595), 10 ng/ml
Read-out: 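Imaged Tnf reporter mCherry in nuclei, minus background, normalised per plate to the median and expressed as robust z-scores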
Reading the numbers: Tnf reporter robust z-score: higher = stronger Tnf promoter reporter signal after LPS
Active means: 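a well counts as active at a score of -1.3 or below (Tlr4 knock-down control median) or above 3 (raised signal); controls and wells holding fewer than 50 cells are excluded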
Meaning of the calls: active = Tnf reporter clearly lowered or raised; inactive = no clear change in Tnf reporter
In all, the deposit lists about 17,000 reagents; this is an unselected part. Of all reagents, about 1,110 (6.6%) were called active. 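Active means lowered or raised reporter signal; replicate intensities are raw and not normalised per plate.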 Entries without a mark were called inactive. Further read-outs or replicates are left out here. Reagent sequences are not shown.

Silencing of Clybl gave: Tnf reporter robust z-score 0.13; fewer than 50 cells in well enough cells in well.
Silencing of Hspa14 came out at: Tnf reporter robust z-score -1.26; fewer than 50 cells in well enough cells in well.
Knock-down of Timm17b gave: Tnf reporter robust z-score -0.15; fewer than 50 cells in well enough cells in well.
With knock-down of Syt12 the results were Tnf reporter robust z-score -0.02; fewer than 50 cells in well enough cells in well.
With knock-down of Ccl1, the screen gave Tnf reporter robust z-score -0.8; fewer than 50 cells in well enough cells in well.
With knock-down of Fastkd1, the screen gave Tnf reporter robust z-score 0.37; fewer than 50 cells in well enough cells in well.
Stag3 showed Tnf reporter robust z-score 2.71; fewer than 50 cells in well enough cells in well.
For Igf2bp3 the deposit lists Tnf reporter robust z-score -0.03; fewer than 50 cells in well enough cells in well.
Six6 gave Tnf reporter robust z-score 0.39; fewer than 50 cells in well enough cells in well.
With knock-down of Klra3, the record shows Tnf reporter robust z-score 0.27; fewer than 50 cells in well enough cells in well.
Depletion of Defa-rs12 came out at: Tnf reporter robust z-score -0.57; fewer than 50 cells in well enough cells in well.
Depletion of Rasgrf1 came out at: Tnf reporter robust z-score 0.31; fewer than 50 cells in well enough cells in well.
With knock-down of Ccdc166, the record shows Tnf reporter robust z-score 1.03; fewer than 50 cells in well enough cells in well.
With knock-down of Sdhaf2 the results were Tnf reporter robust z-score -0.52; fewer than 50 cells in well enough cells in well.
2900052L18Rik showed fewer than 50 cells in well fewer than 50 cells per well; well left out of calls.
With knock-down of Ccdc117 the results were Tnf reporter robust z-score 0.68; fewer than 50 cells in well enough cells in well.
Against Uba1y, the entry reads fewer than 50 cells in well fewer than 50 cells per well; well left out of calls.
Silencing of Fancl came out at: Tnf reporter robust z-score -0.42; fewer than 50 cells in well enough cells in well.
After knock-down of Tsfm, the record shows fewer than 50 cells in well fewer than 50 cells per well; well left out of calls.
Against Slc38a3 the deposit lists fewer than 50 cells in well fewer than 50 cells per well; well left out of calls.
Against Pcmt1, the entry reads Tnf reporter robust z-score -0.7; fewer than 50 cells in well enough cells in well.

An excerpt of the results above:
2900052L18Rik → fewer than 50 cells in well = fewer than 50 cells per well; well left out of calls
Ccdc117 → Tnf reporter robust z-score = 0.68; fewer than 50 cells in well = enough cells in well
